From doi:10.1101/226183

By UniProt entry, the sequences of proteins in these tests, tags left out. Where a name states a change or a piece, a line headed by the entry shows the natural chain unless it says otherwise.
UniProt Q9M9N3: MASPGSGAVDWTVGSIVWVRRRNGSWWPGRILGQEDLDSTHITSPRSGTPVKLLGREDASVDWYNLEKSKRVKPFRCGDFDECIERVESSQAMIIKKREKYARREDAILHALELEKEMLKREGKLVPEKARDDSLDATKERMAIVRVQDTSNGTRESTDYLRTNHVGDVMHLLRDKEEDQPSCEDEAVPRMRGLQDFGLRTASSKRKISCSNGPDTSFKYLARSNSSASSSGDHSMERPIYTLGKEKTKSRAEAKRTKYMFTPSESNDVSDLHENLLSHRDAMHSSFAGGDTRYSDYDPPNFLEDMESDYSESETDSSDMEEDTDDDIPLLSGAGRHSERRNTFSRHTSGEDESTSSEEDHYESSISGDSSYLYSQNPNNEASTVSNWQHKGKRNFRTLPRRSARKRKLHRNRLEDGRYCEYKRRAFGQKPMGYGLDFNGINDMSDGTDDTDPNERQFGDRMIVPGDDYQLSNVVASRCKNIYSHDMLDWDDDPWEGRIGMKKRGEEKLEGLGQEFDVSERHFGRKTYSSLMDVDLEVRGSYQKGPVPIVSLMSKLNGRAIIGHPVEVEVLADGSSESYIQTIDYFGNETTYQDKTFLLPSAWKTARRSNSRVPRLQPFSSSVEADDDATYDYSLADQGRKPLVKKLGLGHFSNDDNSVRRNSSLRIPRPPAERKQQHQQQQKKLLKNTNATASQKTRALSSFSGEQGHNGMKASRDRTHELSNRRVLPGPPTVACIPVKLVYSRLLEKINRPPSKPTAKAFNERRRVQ

Target: PWO1-GFP (PWO1pro::PWO1-GFP) (Arabidopsis thaliana) (UniProt Q9M9N3)
Assay: co-IP

B1: mCHERRY-CLF (i35Spro::mCHERRY-CLF) (protein, UniProt P93831 1-902)
chain: MASEASPSSSATRSEPPKDSPAEERGPASKEVSEVIESLKKKLAADRCISIKKRIDENKKNLFAITQSFMRSSMERGGSCKDGSDLLVKRQRDSPGMKSGIDESNNNRYVEDGPASSGMVQGSSVPVKISLRPIKMPDIKRLSPYTTWVFLDRNQRMTEDQSVVGRRRIYYDQTGGEALICSDSEEEAIDDEEEKRDFLEPEDYIIRMTLEQLGLSDSVLAELASFLSRSTSEIKARHGVLMKEKEVSESGDNQAESSLLNKDMEGALDSFDNLFCRRCLVFDCRLHGCSQDLIFPAEKPAPWCPPVDENLTCGANCYKTLLKSGRFPGYGTIEGKTGTSSDGAGTKTTPTKFSSKLNGRKPKTFPSESASSNEKCALETSDSENGLQQDTNSDKVSSSPKVKGSGRRVGRKRNKNRVAERVPRKTQKRQKKTEASDSDSIASGSCSPSDAKHKDNEDATSSSQKHVKSGNSGKSRKNGTPAEVSNNSVKDDVPVCQSNEVASELDAPGSDESLRKEEFMGETVSRGRLATNKLWRPLEKSLFDKGVEIFGMNSCLIARNLLSGFKSCWEVFQYMTCSENKASFFGGDGLNPDGSSKFDINGNMVNNQVRRRSRFLRRRGKVRRLKYTWKSAAYHSIRKRITEKKDQPCRQFNPCNCKIACGKECPCLLNGTCCEKYCGCPKSCKNRFRGCHCAKSQCRSRQCPCFAADRECDPDVCRNCWVIGGDGSLGVPSQRGDNYECRNMKLLLKQQQRVLLGISDVSGWGAFLKNSVSKHEYLGEYTGELISHKEADKRGKIYDRENCSFLFNLNDQFVLDAYRKGDKLKFANHSPEPNCYAKVIMVAGDHRVGIFAKERILAGEELFYDYRYEPDRAPAWAKKPEAPGSKKDENVTPSVGRPKKLA
binding: binds

These are yes or no findings as the source states them, for the method shown. In cells and extracts the contact can be indirect. A result given as binding can be weak or reduced; the word gives no strength.
